PubChem BioAssay AID1259405, NCATS | 2018
In all, the deposit lists about 50,000 reagents; shown is a random part of them. About 4,000 of all reagents (8%) were called active. 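Mouse siRNA library applied to hamster cells; one well for each siRNA.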 A number with no mark means an inactive call. Further read-outs or replicates are left out here.

Aim: 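Knock-downs that lift recombinant protein yield in hamster ovary cells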 (primary screen)
Cells: Chinese hamster CHO-K1 ovary cells with stable secreted eGFP expression
Reagent: single siRNA against mouse genes, 0.8 pmol siRNA per well (2 µl of 400 nM stock)
Timing: 3 days
Read-out: 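Percent of the per-plate non-targeting control median for intracellular GFP per well by laser scanning cytometry and for cell viability by ATP luminescence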
Scale: GFP, % of control: higher = more GFP per well, higher productivity
Hit rule: 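Called active when intracellular GFP, relative to negative control, is at or above 120%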

GFP, % of control, by target and reagent
Prb1a (proline-rich protein BstNI subfamily 1A): SID363581847 97.5; SID363589341 25
Exoc6 (exocyst complex component 6): SID363553681 53.2; SID363561638 77.3; SID363565376 98.9
Cacybp (calcyclin binding protein): SID363541812 70.1; SID363553404 64.1; SID363566728 61.4
Abcb11 (ATP-binding cassette, sub-family B member 11): SID363574621 76.8; SID363575677 57.9; SID363580253 86.9
Spint1 (serine protease inhibitor, Kunitz type 1): SID363555425 101; SID363564086 70.5; SID363587632 91.3
Fntb (farnesyltransferase, CAAX box, beta): SID363570639 110; SID363579439 71.3; SID363583311 121 (active)
Rs1 (retinoschisis (X-linked, juvenile) 1 (human)): SID363572808 58.9; SID363578088 58.4; SID363582312 75.7
Egr2 (early growth response 2): SID363573414 49.2; SID363588653 53.7
Or6b2b (olfactory receptor family 6 subfamily B member 2B): SID363544526 56.1; SID363550854 112; SID363557403 69.1
Thoc5 (THO complex 5): SID363540164 64.9; SID363561465 79.6; SID363564501 65.9
Epm2aip1 (EPM2A interacting protein 1): SID363540110 75; SID363561411 45.1; SID363564447 96.1
Pik3r3 (phosphoinositide-3-kinase regulatory subunit 3): SID363581772 69.8; SID363589266 101
Acsl1 (acyl-CoA synthetase long-chain family member 1): SID363572707 64.8; SID363577987 124 (active); SID363582211 108

Entries listed so far whose target name starts with O or o:
GFP, % of control, by target and reagent
Or6b2b (olfactory receptor family 6 subfamily B member 2B): SID363544526 56.1; SID363550854 112; SID363557403 69.1
